In PMC11873240:

What was measured:
[1] = target: T1, Phospholipase C β4 (mouse (endogenous in BMMs and preosteoclasts)) (UniProt Q91UZ1); assay: co-IP; lysate of serum- and cytokine-starved BMMs stimulated with RANKL (50 ng/ml) for the indicated times; IP with anti-PLCβ4 antibody; immunoblot with anti-MKK3, anti-p38 and anti-PLCβ4
T1 sequence: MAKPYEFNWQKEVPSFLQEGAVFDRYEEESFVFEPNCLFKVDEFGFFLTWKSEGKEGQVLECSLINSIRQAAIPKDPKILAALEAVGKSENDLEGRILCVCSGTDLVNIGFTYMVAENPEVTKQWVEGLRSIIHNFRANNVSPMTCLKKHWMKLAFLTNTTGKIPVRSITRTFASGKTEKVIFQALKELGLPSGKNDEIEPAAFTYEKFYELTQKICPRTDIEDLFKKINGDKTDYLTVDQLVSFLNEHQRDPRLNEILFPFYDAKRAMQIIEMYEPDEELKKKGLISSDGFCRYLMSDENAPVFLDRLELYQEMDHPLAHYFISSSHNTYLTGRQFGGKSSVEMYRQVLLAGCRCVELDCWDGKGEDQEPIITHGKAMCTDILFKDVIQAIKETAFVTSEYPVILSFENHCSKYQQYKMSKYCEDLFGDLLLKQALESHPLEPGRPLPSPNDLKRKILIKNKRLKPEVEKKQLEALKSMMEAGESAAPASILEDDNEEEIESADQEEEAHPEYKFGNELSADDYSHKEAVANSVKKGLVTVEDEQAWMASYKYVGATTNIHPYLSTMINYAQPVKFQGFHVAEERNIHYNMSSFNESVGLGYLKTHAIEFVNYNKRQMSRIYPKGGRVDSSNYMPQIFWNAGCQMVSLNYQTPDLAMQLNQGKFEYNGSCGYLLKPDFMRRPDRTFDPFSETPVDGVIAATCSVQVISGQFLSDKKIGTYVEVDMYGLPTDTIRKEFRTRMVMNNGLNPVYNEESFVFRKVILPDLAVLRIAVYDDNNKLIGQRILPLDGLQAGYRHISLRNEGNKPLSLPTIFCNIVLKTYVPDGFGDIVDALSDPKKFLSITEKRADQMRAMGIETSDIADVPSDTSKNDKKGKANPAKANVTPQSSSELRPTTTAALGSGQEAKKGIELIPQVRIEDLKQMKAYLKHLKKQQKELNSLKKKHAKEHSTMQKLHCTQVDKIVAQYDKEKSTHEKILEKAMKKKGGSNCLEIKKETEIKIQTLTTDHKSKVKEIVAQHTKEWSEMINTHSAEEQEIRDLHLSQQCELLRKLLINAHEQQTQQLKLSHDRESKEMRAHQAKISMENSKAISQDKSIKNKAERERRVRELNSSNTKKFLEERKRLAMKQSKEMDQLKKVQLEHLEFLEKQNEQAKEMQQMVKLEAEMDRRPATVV

[2] = target: T1, Phospholipase C β4 (mouse (endogenous in BMMs and preosteoclasts)); assay: co-IP; lysate of preosteoclasts (50 mM Tris-HCl pH 7.4, 150 mM NaCl, 1% Nonidet P-40, 1 mM EDTA); IP with anti-PLCβ4 antibody or normal mouse IgG, Sepharose A beads; immunoblot with anti-p38 and anti-PLCβ4

## p38 mitogen-activated protein kinase (enzyme)
[1]
  binding: binds
[2]
  binding: binds

Results are given in words; binding and its absence hold for the method and conditions named. In cells and extracts the contact can be indirect. Binding calls can cover weak binding; strength is not graded here.
